Results published in PMC8162347, “Bolaamphiphilic Bis-Dehydropeptide Hydrogels as Potential Drug Release Systems” (Gels, 2021).
Where “and” joins values, the source holds several entries; their conditions need not be identical. Identical values can stand only once.

Assay: Sustained release assay of model cargo from hydrogels
Details: 1.5 mL water layered on top, after 6 days, mean of triplicate; for Ciprofloxacin Released (%): ciprofloxacin (0.2 nM) in 1 mL hydrogel, analytical HPLC; for MO Released (%): methyl orange (0.2 nM) in 1 mL hydrogel, absorbance 465 nm; for MB Released (%): methylene blue (0.1 nM) in 1 mL hydrogel, absorbance 666 nm
Description: Hydrogels containing cationic, anionic, or zwitterionic model drugs were prepared using the same conditions described in Section 2.2 but with the water component (1 mL) being replaced by a methylene blue solution, methyl orange solution, or ciprofloxacin solution. In a modified version of the method described by Abraham et al., water was carefully layered on top of the hydrogel surface. Then, the percentage release of model drug was recorded versus time, over 6 days, through UV absorption measurements or by HPLC and then subsequently fitted to a standard calibration curve (Figure S10 in Supplementary Information). The experiments were also assessed visually (Figure 9). […] In the studies involving the release of methyl orange, a clearly visible release of the anionic dye into the layered water solution was observed from the three hydrogels after several days (Figure 9B,D,F centre). The results for the release of methyl orange were also confirmed quantitatively by UV absorption measurements. Hydrogelators 1 and 3, which contain a phenylalanine residue, release nearly 60% of the anionic methyl orange cargo, whereas hydrogel 2, containing a tyrosine residue, released more than 90%. […] Ciprofloxacin was included as an overall neutral cargo. In experiments involving hydrogels of compounds 1–3 containing ciprofloxacin, the amount of ciprofloxacin present in the above water layer was determined by HPLC at various time-points. Hydrogelators 1, 2, and 3 release 32%, 58%, and 20% of their ciprofloxacin cargo, respectively (Table 4) (Figure S11 in Supplementary Information). As observed for methyl orange, the hydrogel that releases the greatest amount of ciprofloxacin is the hydrogel obtained from compound 2 (Table 4, Figure S11 in Supplementary Information).
To quantitatively evaluate the drug release from hydrogels 1–3, several mathematical models were tested to see which one fits the tested hydrogels. The Korsmeyer–Peppas model is the preferred model for polymeric systems. Korsmeyer described a simple relationship that described drug release from a polymeric system that includes both the diffusion and erosion of the polymer chain. The following equation describes the Korsmeyer–Peppas model: Mt/M = Kt^n
Hydrogels of 1, 2, and 3 were prepared as described in Section 4.2 to form 1 mL hydrogels containing the same concentration of the hydrogelators described above and the appropriate cargo (methylene blue ([…]), methyl orange (0.2 nM), or ciprofloxacin (0.2 nM)), in a slightly modified version of the procedure described by Abraham et al.. After allowing to stand overnight, 1.5 mL of water was carefully added to the surface of the hydrogels. Aliquots of the layered solution (100 μL) were removed at 1 h, 2 h, 3 h, 4 h, 6 h, 24 h, 72 h, and 6 days from the time the water was initially layered on top of the hydrogel. After removing each aliquot, the volume water was immediately replaced by an equal volume of water. The concentration of methylene blue or methyl orange in each aliquot was determined by measuring the absorbance at λmax of the dye (666 nm for methylene blue and 465 nm for methyl orange) using a microplate reader and then converting the value to percentage release (using a standard calibration curve). The concentration of ciprofloxacin in each aliquot was determined using analytical HPLC, where the integrated peak area was converted to a percentage release (using a standard calibration curve). Each experiment was performed in triplicate, and the mean percentage cargo release was plotted against time.

Compound: O=C(O)/C(=C/c1ccccc1)NC(=O)[C@H](Cc1ccccc1)NC(=O)c1ccc(C(=O)N[C@@H](Cc2ccccc2)C(=O)N/C(=C\c2ccccc2)C(=O)O)cc1 [Compound 1]
- Ciprofloxacin Released (%): 32% and 32.3%
- MO Released (%): ~60% and 60.9%
- MB Released (%): 12.1%

Compound: O=C(O)/C(=C/c1ccccc1)NC(=O)[C@H](Cc1ccc(O)cc1)NC(=O)c1ccc(C(=O)N[C@@H](Cc2ccc(O)cc2)C(=O)N/C(=C\c2ccccc2)C(=O)O)cc1 [Compound 2]
- Ciprofloxacin Released (%): 58% and 58.8%
- MB Released (%): 7.63%

Compound: O=C(O)/C(=C/c1ccccc1)NC(=O)[C@H](Cc1ccccc1)NC(=O)c1ccc2cc(C(=O)N[C@@H](Cc3ccccc3)C(=O)N/C(=C\c3ccccc3)C(=O)O)ccc2c1 [Compound 3]
- Ciprofloxacin Released (%): 20% and 20.3%
- MO Released (%): ~60% and 60.3%
- MB Released (%): 9.55%
